This note sets out measurements from article doi:10.1101/2022.10.20.512913.

The chains behind the UniProt entries cited, without tags or fusion partners.
UniProt Q8VZQ4: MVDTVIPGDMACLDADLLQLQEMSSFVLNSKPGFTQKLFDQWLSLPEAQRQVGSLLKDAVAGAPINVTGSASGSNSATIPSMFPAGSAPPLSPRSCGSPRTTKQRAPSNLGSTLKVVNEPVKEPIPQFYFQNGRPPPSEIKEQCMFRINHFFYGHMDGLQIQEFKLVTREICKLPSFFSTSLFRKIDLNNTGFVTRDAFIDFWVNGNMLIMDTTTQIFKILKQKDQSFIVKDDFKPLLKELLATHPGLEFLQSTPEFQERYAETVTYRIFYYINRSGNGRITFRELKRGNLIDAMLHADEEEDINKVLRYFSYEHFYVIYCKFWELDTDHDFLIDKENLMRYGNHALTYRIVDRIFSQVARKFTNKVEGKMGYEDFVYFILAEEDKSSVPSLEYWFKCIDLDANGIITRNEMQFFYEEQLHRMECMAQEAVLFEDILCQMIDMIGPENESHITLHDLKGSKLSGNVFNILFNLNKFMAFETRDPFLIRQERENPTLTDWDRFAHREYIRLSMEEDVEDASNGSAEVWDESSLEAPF

Assay in all cases: co-IP
For assay [1], the target named is T1, GFP-PIP2;7 (Arabidopsis) (UniProt P93004).
T1 sequence: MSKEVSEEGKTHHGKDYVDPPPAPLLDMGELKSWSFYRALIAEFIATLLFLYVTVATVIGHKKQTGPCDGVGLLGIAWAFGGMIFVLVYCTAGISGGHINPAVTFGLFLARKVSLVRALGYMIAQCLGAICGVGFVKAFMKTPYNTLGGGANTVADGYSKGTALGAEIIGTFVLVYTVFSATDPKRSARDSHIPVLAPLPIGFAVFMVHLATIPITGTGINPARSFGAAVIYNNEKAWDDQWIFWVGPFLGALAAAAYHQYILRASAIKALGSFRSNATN

Assay [2] has as its target PP2A-B’’γ-YFP (Arabidopsis) (UniProt Q8VZQ4).
Assay [3] has as its target T1, GFP-PIP2;7 (Arabidopsis). This is another data set of the same source.
The target in assay [4] is T2, FLOT2-GFP (Arabidopsis) (UniProt Q4V3D6).
T2 sequence: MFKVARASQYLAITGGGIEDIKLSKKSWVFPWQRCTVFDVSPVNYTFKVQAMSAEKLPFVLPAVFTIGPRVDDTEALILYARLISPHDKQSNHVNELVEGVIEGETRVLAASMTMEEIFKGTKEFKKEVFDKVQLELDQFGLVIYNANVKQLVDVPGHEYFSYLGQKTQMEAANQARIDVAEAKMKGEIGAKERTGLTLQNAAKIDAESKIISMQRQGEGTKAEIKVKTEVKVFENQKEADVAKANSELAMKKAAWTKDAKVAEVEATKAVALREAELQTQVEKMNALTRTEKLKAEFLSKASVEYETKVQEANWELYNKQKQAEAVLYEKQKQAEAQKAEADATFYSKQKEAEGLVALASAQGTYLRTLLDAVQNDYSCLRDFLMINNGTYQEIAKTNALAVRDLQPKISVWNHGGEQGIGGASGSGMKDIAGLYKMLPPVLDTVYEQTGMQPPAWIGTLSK

Like-named read-outs stand apart in the source and are kept apart here. Results are given in words; binding and its absence hold for the method and conditions named. Binding seen in cells or lysates may run through a third protein. For some of these results: Binding can be weak; no strength is given. For some of these results: Tags and fused reporters may be left off the sequences shown.

CWLP-HA (from UniProt Q9LIE9): the binding entry in assay [1] is given as “binds”; in assay [2], “binds”; in assay [3], “binds”; in assay [4], “no binding”.
